The target in experiment [1] is T1, STOX2A, 3xFLAG-tagged (STOX2-FLAG), overexpressed in HEK293T cells (UniProt Q9P2F5).
T1 sequence: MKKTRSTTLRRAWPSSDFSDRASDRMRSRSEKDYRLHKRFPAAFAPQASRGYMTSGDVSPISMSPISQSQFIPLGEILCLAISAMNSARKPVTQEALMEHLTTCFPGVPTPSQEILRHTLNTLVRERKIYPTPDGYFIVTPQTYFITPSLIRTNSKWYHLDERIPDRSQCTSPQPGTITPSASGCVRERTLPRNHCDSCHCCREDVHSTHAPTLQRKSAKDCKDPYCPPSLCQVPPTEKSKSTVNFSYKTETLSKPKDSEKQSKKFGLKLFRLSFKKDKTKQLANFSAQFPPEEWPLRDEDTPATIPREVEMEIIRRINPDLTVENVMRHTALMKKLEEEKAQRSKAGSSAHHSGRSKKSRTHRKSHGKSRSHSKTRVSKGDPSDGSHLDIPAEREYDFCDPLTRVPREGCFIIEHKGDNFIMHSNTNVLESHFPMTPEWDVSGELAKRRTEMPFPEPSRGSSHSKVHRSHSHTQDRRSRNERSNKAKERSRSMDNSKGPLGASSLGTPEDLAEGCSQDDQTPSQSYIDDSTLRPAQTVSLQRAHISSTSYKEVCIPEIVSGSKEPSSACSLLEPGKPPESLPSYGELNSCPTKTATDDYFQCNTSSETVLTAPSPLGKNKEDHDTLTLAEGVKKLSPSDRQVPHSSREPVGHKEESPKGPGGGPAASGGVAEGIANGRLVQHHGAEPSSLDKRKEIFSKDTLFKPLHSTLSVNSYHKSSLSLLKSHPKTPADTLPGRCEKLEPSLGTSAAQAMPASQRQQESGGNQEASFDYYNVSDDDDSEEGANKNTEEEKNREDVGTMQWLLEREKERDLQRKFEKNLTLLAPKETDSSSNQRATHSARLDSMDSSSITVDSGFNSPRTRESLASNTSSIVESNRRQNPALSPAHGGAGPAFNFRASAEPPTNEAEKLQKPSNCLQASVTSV
In words: co-IP; 293T cells transfected with STOX2 and SMAD2; lysis in TNTE buffer (50 mM Tris/HCl pH 7.6, 150 mM NaCl, 0.5% TritonX-100, 1 mM EDTA); STOX2-FLAG immunoprecipitated with FLAG antibody; immunoblot. On the technique in general: A western blot detects proteins with antibodies after separation by electrophoresis.

The chains behind the UniProt entries cited, without tags or fusion partners.
UniProt Q15796: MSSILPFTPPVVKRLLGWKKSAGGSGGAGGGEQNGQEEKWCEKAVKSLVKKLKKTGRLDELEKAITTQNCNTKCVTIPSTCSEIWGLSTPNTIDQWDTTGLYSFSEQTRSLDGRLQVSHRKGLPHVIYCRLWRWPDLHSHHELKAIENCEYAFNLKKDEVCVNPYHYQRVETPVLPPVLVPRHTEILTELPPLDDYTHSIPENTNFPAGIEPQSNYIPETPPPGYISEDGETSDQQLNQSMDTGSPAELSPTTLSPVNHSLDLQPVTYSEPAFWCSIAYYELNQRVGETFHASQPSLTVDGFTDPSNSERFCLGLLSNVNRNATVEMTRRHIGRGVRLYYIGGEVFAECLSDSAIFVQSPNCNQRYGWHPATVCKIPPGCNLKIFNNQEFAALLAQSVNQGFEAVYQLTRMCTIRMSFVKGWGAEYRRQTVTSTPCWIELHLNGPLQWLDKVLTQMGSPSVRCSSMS

Experiment [2] concerns the target T2, STOX2, endogenous in human embryonic stem cells (human (endogenous in hESCs)) (UniProt Q9P2F5).
T2 sequence: T1 sequence
In words: co-IP; endogenous proteins; 2 mg of total protein from hESCs treated for 4 h with DMSO (solvent control), incubated with 2 μg of STOX2 antibody (IgG as control); immunoblot for STOX2 and SMAD2.

The target of experiment [3] is T2, STOX2, endogenous in human embryonic stem cells (human (endogenous in hESCs)). In words: condition: only hESCs treated for 4 h with SB (inhibition of TGF-β signaling); co-IP; endogenous proteins; 2 mg of total protein from hESCs treated for 4 h with SB (inhibition of TGF-β signaling), incubated with 2 μg of STOX2 antibody (IgG as control); immunoblot for STOX2 and SMAD2.

Experiment [4] deals with SMAD2, HA-tagged (SMAD2-HA), overexpressed in HEK293T cells (UniProt Q15796). In words: co-IP; 293T cells transfected with STOX2 and SMAD2; lysis in TNTE buffer; SMAD2-HA immunoprecipitated with HA antibody; immunoblot.

This passage reports binding results from PMC7765495.

No constants are given. Whether binding was seen depends on the method and setting. In cells and extracts the contact can be indirect. Some results given as binding are weak or reduced against the parent protein; the word gives no strength. For some of these results: Tags and fused reporters may be left off the sequences shown.

For “SMAD2, HA-tagged (SMAD2-HA), overexpressed in HEK293T cells (from UniProt Q15796 1-467)”, the binding entry in experiment [1] is reported as “binds”.
In the case of “SMAD2, endogenous in human embryonic stem cells (from UniProt Q15796 1-467)”, the binding entry is given as “binds” in experiment [2] and “no binding” in experiment [3].

B1: STOX2A, 3xFLAG-tagged (STOX2-FLAG), overexpressed in HEK293T cells (protein, UniProt Q9P2F5 1-926)
chain: T1 sequence
Turning to B1, the binding result in experiment [4] is recorded as “binds”.
